# Results as given in the supplement of paper PMC8728848.
# This is one part of the list.
# B1: EfCBM33A (Enterococcus faecalis), Q838S1 (protein)
# chain: MKKSLLTIVLAFSFVLGGAALAPTVSEAHGYVASPGSRAFFGSSAGGNLNTNVGRAQWEPQSIEAPKNTFITGKLASAGVSGFEPLDEQTATRWHKTNITTGPLDITWNLTAQHRTASWDYYITKNGWNPNQPLDIKNFDKIASIDGKQEVPNKVVKQTINIPTDRKGYHVIYAVWGIGDTVNAFYQAIDVNIQ
# Assays:
# Experiment in all cases: glycan array binding signal (z-score within array); higher = stronger binding
# Conditions in all cases: glycan notation: IUPAC condensed, linker removed
# [1] = target: Man(a1-2)Man(a1-3)[Man(a1-2)Man(a1-6)]Man
# Summary of the method: (§1)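 The binding signal is a Z-score computed within each array. Data were drawn from 3228 arrays in the Consortium for Functional Glycomics database, restricted to those with a known protein sequence. Scores were averaged over arrays of the same protein sequence at different concentrations or buffers, and over linkers, and negative values can be taken as non-binding.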
# [2] = target: Man(a1-2)Man(a1-3)[Man(a1-2)Man(a1-6)]Man(a1-6)[Man(a1-2)Man(a1-2)Man(a1-3)]Man
# Summary of the method: as §1
# [3] = target: Man(a1-2)Man(a1-3)[Man(a1-2)Man(a1-6)]Man(a1-6)[Man(a1-2)Man(a1-2)Man(a1-3)]Man(b1-4)GlcNAc(b1-4)GlcNAc
# Summary of the method: as §1
# [4] = target: Man(a1-2)Man(a1-3)[Man(a1-6)]Man(a1-6)[Man(a1-2)Man(a1-3)]Man(b1-4)GlcNAc(b1-4)GlcNAc
# Summary of the method: as §1
# [5] = target: Man(a1-2)Man(a1-6)[Man(a1-3)]Man(a1-6)[Man(a1-2)Man(a1-2)Man(a1-3)]Man
# Summary of the method: as §1
# [6] = target: Man(a1-2)Man(a1-6)[Man(a1-3)]Man(a1-6)[Man(a1-2)Man(a1-2)Man(a1-3)]Man(b1-4)GlcNAc(b1-4)GlcNAc
# Summary of the method: as §1
# Man(a1-3)[Man(a1-6)]Man = target: Man(a1-3)[Man(a1-6)]Man
# Summary of the method: as §1
# [7] = target: Man(a1-3)[Man(a1-6)]Man(a1-6)[Man(a1-2)Man(a1-3)]Man(b1-4)GlcNAc(b1-4)GlcNAc
# Summary of the method: as §1
# [8] = target: Man(a1-3)[Man(a1-6)]Man(a1-6)[Man(a1-3)]Man
# Summary of the method: as §1
# [9] = target: Man(a1-3)[Man(a1-6)]Man(a1-6)[Man(a1-3)]Man(b1-4)GlcNAc(b1-4)GlcNAc
# Summary of the method: as §1
# [10] = target: Man(a1-3)[Man(a1-6)]Man(b1-4)GlcNAc(b1-4)GlcNAc
# Summary of the method: as §1
# [11] = target: Man(a1-3)[Man(a1-6)]Man(b1-4)GlcNAc(b1-4)[Fuc(a1-6)]GlcNAc
# Summary of the method: as §1
# Man(a1-6)Man = target: Man(a1-6)Man
# Summary of the method: as §1
# Man(b1-4)GlcNAc = target: Man(b1-4)GlcNAc
# Summary of the method: as §1
# MurNAc(b1-4)GlcNAc = target: MurNAc(b1-4)GlcNAc
# Summary of the method: as §1
# Neu5Ac(a2-3)Gal = target: Neu5Ac(a2-3)Gal
# Summary of the method: as §1
# [12] = target: Neu5Ac(a2-3)Gal(b1-3)GalNAc
# Summary of the method: as §1
# [13] = target: Neu5Ac(a2-3)Gal(b1-3)GalNAc(b1-3)Gal(a1-4)Gal(b1-4)Glc
# Summary of the method: as §1
# [14] = target: Neu5Ac(a2-3)Gal(b1-3)GalNAc(b1-4)Gal(b1-4)Glc
# Summary of the method: as §1
# [15] = target: Neu5Ac(a2-3)Gal(b1-3)GalNAc(b1-4)[Neu5Ac(a2-3)]Gal(b1-4)Glc
# Summary of the method: as §1
# [16] = target: Neu5Ac(a2-3)Gal(b1-3)GalNAc(b1-4)[Neu5Ac(a2-8)Neu5Ac(a2-3)]Gal(b1-4)Glc
# Summary of the method: as §1
# [17] = target: Neu5Ac(a2-3)Gal(b1-3)GalNAc6S
# Summary of the method: as §1
# [18] = target: Neu5Ac(a2-3)Gal(b1-3)GlcNAc
# Summary of the method: as §1
# [19] = target: Neu5Ac(a2-3)Gal(b1-3)GlcNAc(b1-2)Man
# Summary of the method: as §1
# [20] = target: Neu5Ac(a2-3)Gal(b1-3)GlcNAc(b1-2)Man(a1-3)[GlcNAc(b1-4)][Neu5Ac(a2-3)Gal(b1-3)GlcNAc(b1-2)Man(a1-6)]Man(b1-4)GlcNAc(b1-4)GlcNAc
# Summary of the method: as §1
# [21] = target: Neu5Ac(a2-3)Gal(b1-3)GlcNAc(b1-2)Man(a1-3)[Neu5Ac(a2-3)Gal(b1-3)GlcNAc(b1-2)Man(a1-6)]Man(b1-4)GlcNAc(b1-4)GlcNAc
# Summary of the method: as §1
# [22] = target: Neu5Ac(a2-3)Gal(b1-3)GlcNAc(b1-2)[Neu5Ac(a2-3)Gal(b1-3)GlcNAc(b1-4)]Man(a1-6)[Neu5Ac(a2-3)Gal(b1-3)GlcNAc(b1-2)Man(a1-3)]Man(b1-4)GlcNAc(b1-4)GlcNAc
# Summary of the method: as §1
# [23] = target: Neu5Ac(a2-3)Gal(b1-3)GlcNAc(b1-3)Gal(b1-3)GlcNAc
# Summary of the method: as §1
# [24] = target: Neu5Ac(a2-3)Gal(b1-3)GlcNAc(b1-3)Gal(b1-4)GlcNAc
# Summary of the method: as §1
# [25] = target: Neu5Ac(a2-3)Gal(b1-3)GlcNAc(b1-3)GalNAc
# Summary of the method: as §1
# [26] = target: Neu5Ac(a2-3)Gal(b1-3)GlcNAc(b1-6)GalNAc
# Summary of the method: as §1
# [27] = target: Neu5Ac(a2-3)Gal(b1-3)GlcNAc6S
# Summary of the method: as §1
# [28] = target: Neu5Ac(a2-3)Gal(b1-3)[Fuc(a1-4)]GlcNAc
# Summary of the method: as §1
# [29] = target: Neu5Ac(a2-3)Gal(b1-3)[Fuc(a1-4)]GlcNAc(b1-3)Gal(b1-3)[Fuc(a1-4)]GlcNAc
# Summary of the method: as §1
# [30] = target: Neu5Ac(a2-3)Gal(b1-3)[Fuc(a1-4)]GlcNAc(b1-3)Gal(b1-4)[Fuc(a1-3)]GlcNAc
# Summary of the method: as §1
# [31] = target: Neu5Ac(a2-3)Gal(b1-3)[GlcNAc(b1-6)]GalNAc
# Summary of the method: as §1
# [32] = target: Neu5Ac(a2-3)Gal(b1-3)[Neu5Ac(a2-6)]GalNAc
# Summary of the method: as §1
# [33] = target: Neu5Ac(a2-3)Gal(b1-3)[Neu5Ac(a2-6)]GlcNAc(b1-3)[Fuc(a1-3)[Gal(b1-4)]GlcNAc(b1-6)]Gal(b1-4)Glc
# Summary of the method: as §1
binder,measurement,setting,value
B1,glycan array binding signal (z-score),[1],0.783
same,glycan array binding signal (z-score),[2],-0.446
same,glycan array binding signal (z-score),[3],-0.525
same,glycan array binding signal (z-score),[4],-0.963
same,glycan array binding signal (z-score),[5],-0.949
same,glycan array binding signal (z-score),[6],-0.399
same,glycan array binding signal (z-score),Man(a1-3)[Man(a1-6)]Man,0.092
same,glycan array binding signal (z-score),[7],0.75
same,glycan array binding signal (z-score),[8],-2.09
same,glycan array binding signal (z-score),[9],0.455
same,glycan array binding signal (z-score),[10],0.206
same,glycan array binding signal (z-score),[11],-0.45
same,glycan array binding signal (z-score),Man(a1-6)Man,-0.011
same,glycan array binding signal (z-score),Man(b1-4)GlcNAc,-0.603
same,glycan array binding signal (z-score),MurNAc(b1-4)GlcNAc,0.631
same,glycan array binding signal (z-score),Neu5Ac(a2-3)Gal,-1.8
same,glycan array binding signal (z-score),[12],-0.07
same,glycan array binding signal (z-score),[13],-1.77
same,glycan array binding signal (z-score),[14],2.04
same,glycan array binding signal (z-score),[15],-0.378
same,glycan array binding signal (z-score),[16],-0.329
same,glycan array binding signal (z-score),[17],-0.351
same,glycan array binding signal (z-score),[18],-0.334
same,glycan array binding signal (z-score),[19],-0.996
same,glycan array binding signal (z-score),[20],-0.728
same,glycan array binding signal (z-score),[21],-0.513
same,glycan array binding signal (z-score),[22],-0.066
same,glycan array binding signal (z-score),[23],-0.142
same,glycan array binding signal (z-score),[24],-0.199
same,glycan array binding signal (z-score),[25],-0.623
same,glycan array binding signal (z-score),[26],0.16
same,glycan array binding signal (z-score),[27],1.01
same,glycan array binding signal (z-score),[28],0.625
same,glycan array binding signal (z-score),[29],-0.195
same,glycan array binding signal (z-score),[30],1.65
same,glycan array binding signal (z-score),[31],-1.11
same,glycan array binding signal (z-score),[32],-0.995
same,glycan array binding signal (z-score),[33],-0.325

# 2 entries from above, tab-delimited.
binder	measurement	setting	value
B1	glycan array binding signal (z-score)	[25]	-0.623
same	glycan array binding signal (z-score)	[33]	-0.325
